These results are taken from PubChem BioAssay AID1347426 (Functional Genomics Laboratory (NCATS/FGL), 2020).

The campaign covered roughly 31,000 sequences. About 1,400 (4.5%) were called active.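 The calls were made as follows: active = median seed-adjusted z-score above 1 or below -1; inactive = the rest.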 Some of the results follow.

A short description of this assay: Novel Modifiers of Survival Motor Neuron (SMN) Protein: Gene Identification via Genome-wide siRNA Screen.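 Also: luminescence tracks full-length SMN protein made from the SMN2 reporter.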 As to conditions: HEK293T SMN2-luciferase reporter, siRNA knockdown, 72 h; actives lie on both sides. In short, it runs like this: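 siRNA screen, 10418 genes ×3 siRNAs; 1 pmol/well, lipid reverse transfection into HEK293T SMN2-luc reporter line. 72 h, 37 °C, 5% CO2; ONE-Glo readout. Data: neg-ctrl normalized, log10, MAD; hit = MAD >1.0 or < -1.0.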
Background: In a reporter assay the amount or activity of a reporter protein is the signal.
Take GCAUCUGCAAGCUCAUUGATT against NOD2: the median seed-adjusted z-score was inactive: 0.129.

In the case of GCAUUGAUCAAUUUGCAAATT against LSM1, the median seed-adjusted z-score was inactive: 0.

CGCACAUAUUUCAGUCUGATT against ZNF468: the median seed-adjusted z-score is inactive: -0.0435. As for CCCUAGAGCCGAAAAGAAATT against NKX2-5, the figure is inactive: 0.719; as for CGCAAUCGUUUUUACCAAATT against MORC3, inactive: 0.245; as for GGACUCUACUGCUAAAGUATT against TBC1D8B, inactive: -0.985. As for CCACAAUGCCGGUAUCAGUTT against DHRS13, the figure is inactive: 0.192. In the case of GGAAGGCUAUUCAAAAUAATT against SERBP1 it was inactive: 0.143; in that of CCAAGAUUCCUGACACCAATT against MAP4K2, inactive: -0.439; in that of GGCUAUCUGGAAAUCAGUUTT against GTF2IRD2, inactive: 0.904. As to CAAUGAAGAUGAGCCGUAATT against FXYD2, the median seed-adjusted z-score was inactive: -0.383.

As to GGCAGUUUUUGGUAGCUCUTT against ETV1, the median seed-adjusted z-score is inactive: 0.167. In the case of GCAUCCAGUGCGUUAGUAATT against USP6 it was inactive: -0.285. In the case of GCAUGUAGCUGAGAACAAUTT against PCDHGB3 it was inactive: 0.275; in that of GACAGAAGAUCAAUAUGAATT against ETS2, inactive: 0.636; in that of AGAAGAUACAGACCCGCAATT against LOC650864, inactive: 0.214. For the sequence GGAUUCUAACAGUUUUAGATT against AGXT2L1, the median seed-adjusted z-score was inactive: 0.285. GGAUAUCUGUCAUUCAGCATT against MLC1: the median seed-adjusted z-score was inactive: -0.284. In the case of GCUUCGUGCUAGAUAAAGATT against NOP14 it was inactive: -0.344; in that of GGAACAGGCUAUCAGAACATT against TTC8, inactive: 0; in that of GCAUUGCUGUCUCUAGGUUTT against SATB1, inactive: 0. As for CAGGUACCCGGAAAUUAAATT against SCNN1A, the figure is inactive: -0.137; as for CCACCAUUGGGUUAACUGUTT against ABO, inactive: 0.

On to GUACUACAGUUUAUUCGCATT against PARP4, for which the median seed-adjusted z-score is inactive: -0.226.

Consider CGAAACAGCUGUUACCGUATT against AKAP12, for which the median seed-adjusted z-score was inactive: -0.104.

GAUAGACCAUCUACACCUATT against SNX16: the median seed-adjusted z-score was inactive: -0.111.

For GCAUGGAGCUUACACCUGATT against DPM2, the median seed-adjusted z-score is inactive: -0.419. For GCACUGCGUAUGAAGAUUATT against HNRNPR, the median seed-adjusted z-score is inactive: 0.308.

Regarding AGAUAGAUGGUGAAAGAGATT against GPR39, the median seed-adjusted z-score was inactive: 0.0998. With CAGUCGAACUCGUGAAUGATT against UBE2Q1, the median seed-adjusted z-score was inactive: -0.241.

As to CCAUGGAUAUAUCGGUUAATT against LRRTM4, the median seed-adjusted z-score was inactive: 0.

Take GCGCAAUAGGGAUUAUGCATT against SLC6A16: the median seed-adjusted z-score is inactive: -0.461.

Regarding UAAAAGCAGUGUCGACUUATT against EXOSC7, the median seed-adjusted z-score was inactive: 0.0148. As for CAUUGACUGGAAUAAGCUATT against RPS6KA1, the figure is inactive: 0.194. In the case of GCUCUAAUGAGCAACAGUATT against POU2F1 it was inactive: 0.317; in that of GGUGAAACCUGACCGCAAATT against MTNR1A, inactive: 0.

As for GGAAAAGUAUCUAAAGGAATT against CHKA, the median seed-adjusted z-score was inactive: -0.558. For UGAACACUACGAACUCAAATT against CDH15, the median seed-adjusted z-score is inactive: 0. As for CCUACUCAAUGUGAUAUAUTT against ADAMDEC1, the figure is inactive: 0.0106; as for CGUGUUAUGAAACCAUUAATT against GDI2, inactive: -0.161. In the case of UGAUGACGCCUAUCAAUGATT against ADD2 it was inactive: -0.176. Regarding UAAUAAUUCUCACUCCUAATT against FZD5, the median seed-adjusted z-score is inactive: -0.129. In the case of GGAUGGUAGUUUUGAGUCATT against CCNA2 it was inactive: 0.136.

Consider GGGCUGUACCUGAUAGUCUTT against ALPK2, for which the median seed-adjusted z-score was inactive: -0.154.

As to GGACAACAGGGAACAGGAATT against INHBC, the median seed-adjusted z-score is inactive: -0.66. As for CGAGCAAUAUUGGAGUCAATT against GK5, the figure is inactive: -0.118. As for ACUUAAUGCCUGCCUAUUATT against CYP21A2, the figure is inactive: -0.26; as for GCUACACUAUUGACUCCAATT against SLC26A10, inactive: -0.169; as for CAGCAAUGCGAAUAACUAATT against TRIM38, inactive: -0.375. As for CCAAUAUCAUGGAAGUUAATT against PFKFB3, the figure is inactive: -0.133; as for CAACAACCCUUAUCGUAAATT against POLQ, inactive: 0.203; as for GCCUGACAAGUACUCCUUATT against PGK1, inactive: -0.0196. Consider CAGGCAUAGUCUUAACCUUTT against DDX56, for which the median seed-adjusted z-score was inactive: 0.904. As for UGUUCUCCAUGUUCGAACATT against MYL2, the figure is inactive: -0.0369; as for GGGAGUACCUGGACUACGATT against NOC4L, inactive: -0.315; as for CCUCGGACCAGUUACAACATT against BDP1, inactive: -0.0359.

In the case of GCUGUUCAACGUCUACCCATT against CYP2W1, the median seed-adjusted z-score was inactive: -0.0986. Consider CUCUGACCCAUAUAUCAAATT against SYT4, for which the median seed-adjusted z-score is inactive: -0.354. As to GCGUUUCGAUCUGAGGAAATT against PRKAB2, the median seed-adjusted z-score is inactive: 0.17. As for GAAACACCAACUUACGUUATT against DLG1, the figure is inactive: 0.0642.

As for CCUCUACCAUUGCAACUGATT against SLC22A7, the median seed-adjusted z-score was inactive: -0.387. In the case of GGAAGACGAUAGUGACAAATT against MYT1L it was inactive: -0.43; in that of GAUCUGGUUCAACAACAAATT against ABCA7, inactive: -0.711; in that of UCAUGGUCUUGCUCCGUUATT against CCBP2, inactive: -0.0896.

Turning to UGGGAAUGGUAGAAACAAATT against PPIL1, the median seed-adjusted z-score is inactive: 0.166. As for CCAUGGACAACAACAGUAATT against FOXO1, the figure is inactive: 0.0591; as for GCCUUGUAGCAGUGAGUGATT against PRMT3, inactive: 0.00875; as for GCACGUCGAGCAAUCCAAATT against MYOD1, inactive: 0.309.
